Results taken from PMC9344665.
Substitutions are numbered along the chain they refer to. Results are given in words; binding and its absence hold for the method and conditions named. Where a sequence is shown, tags or fusion partners need not be part of it.

Columns and labels:
[1] = target: T1, FARSA P347L variant (human) (UniProt Q9Y285); assay: co-purification of coexpressed proteins (Ni-NTA, then heparin chromatography); mutant His6-FARSA coexpressed with FARSB carrying a C-terminal His6-tag in E. coli Rosetta (DE3); both captured on Ni-NTA, the Ni-NTA eluate loaded on a heparin column; SDS-PAGE of loading, flow-through and elution samples
T1 sequence: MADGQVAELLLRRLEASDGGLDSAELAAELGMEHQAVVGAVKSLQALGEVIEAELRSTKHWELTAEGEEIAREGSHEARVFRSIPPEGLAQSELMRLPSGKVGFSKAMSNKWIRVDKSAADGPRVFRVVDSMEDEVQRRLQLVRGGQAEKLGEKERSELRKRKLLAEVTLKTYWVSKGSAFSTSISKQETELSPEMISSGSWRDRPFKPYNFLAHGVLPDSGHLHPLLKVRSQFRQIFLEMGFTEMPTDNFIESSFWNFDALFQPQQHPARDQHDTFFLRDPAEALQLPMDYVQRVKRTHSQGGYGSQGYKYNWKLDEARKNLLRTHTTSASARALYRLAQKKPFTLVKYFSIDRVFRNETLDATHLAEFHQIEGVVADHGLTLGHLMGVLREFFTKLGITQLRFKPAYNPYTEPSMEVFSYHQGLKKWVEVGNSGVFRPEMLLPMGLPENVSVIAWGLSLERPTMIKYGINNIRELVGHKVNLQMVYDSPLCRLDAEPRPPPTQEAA

[2] = target: T2, FARSA R404C variant (human) (UniProt Q9Y285); assay: as above
T2 sequence: T1 sequence with L347P, R404C

- binding [1]: no binding
- binding [2]: no binding
B1: FARSB with a His6-tag at the C-terminus (enzyme, UniProt Q9NSD9 1-584)
chain: MPTVSVKRDLLFQALGRTYTDEEFDELCFEFGLELDEITSEKEIISKEQGNVKAAGASDVVLYKIDVPANRYDLLCLEGLVRGLQVFKERIKAPVYKRVMPDGKIQKLIITEETAKIRPFAVAAVLRNIKFTKDRYDSFIELQEKLHQNICRKRALVAIGTHDLDTLSGPFTYTAKRPSDIKFKPLNKTKEYTACELMNIYKTDNHLKHYLHIIENKPLYPVIYDSNGVVLSMPPIINGDHSRITVNTRNIFIECTGTDFTKAKIVLDIIVTMFSEYCENQFTVEAAEVVFPNGKSHTFPELAYRKEMVRADLINKKVGIRETPENLAKLLTRMYLKSEVIGDGNQIEIEIPPTRADIIHACDIVEDAAIAYGYNNIQMTLPKTYTIANQFPLNKLTELLRHDMAAAGFTEALTFALCSQEDIADKLGVDISATKAVHISNPKTAEFQVARTTLLPGLLKTIAANRKMPLPLKLFEISDIVIKDSNTDVGAKNYRHLCAVYYNKNPGFEIIHGLLDRIMQLLDVPPGEDKGGYVIKASEGPAFFPGRCAEIFARGQSVGKLGVLHPDVITKFELTMPCSSLEIN
